Experimental data: article doi:10.1101/2024.07.16.603632
Results are given in words; binding and its absence hold for the method and conditions named. Binding seen in cells or lysates may run through a third protein. A yes stands for co-enrichment or nearness to the bait. Other partners may have been found. Tags and fused reporters may be left off the sequences shown.

B1: FAF2 (protein, UniProt Q96CS3 1-445)
chain: MAAPEERDLTQEQTEKLLQFQDLTGIESMDQCRHTLEQHNWNIEAAVQDRLNEQEGVPSVFNPPPSRPLQVNTADHRIYSYVVSRPQPRGLLGWGYYLIMLPFRFTYYTILDIFRFALRFIRPDPRSRVTDPVGDIVSFMHSFEEKYGRAHPVFYQGTYSQALNDAKRELRFLLVYLHGDDHQDSDEFCRNTLCAPEVISLINTRMLFWACSTNKPEGYRVSQALRENTYPFLAMIMLKDRRMTVVGRLEGLIQPDDLINQLTFIMDANQTYLVSERLEREERNQTQVLRQQQDEAYLASLRADQEKERKKREERERKRRKEEEVQQQKLAEERRRQNLQEEKERKLECLPPEPSPDDPESVKIIFKLPNDSRVERRFHFSQSLTVIHDFLFSLKESPEKFQIEANFPRRVLPCIPSEEWPNPPTLQEAGLSHTEVLFVQDLTDE
B2: TMED10 (protein, UniProt P49755 32-219)
chain: ISFHLPINSRKCLREEIHKDLLVTGAYEISDQSGGAGGLRSHLKITDSAGHILYSKEDATKGKFAFTTEDYDMFEVCFESKGTGRIPDQLVILDMKHGVEAKNYEEIAKVEKLKPLEVELRRLEDLSESIVNDFAYMKKREEEMRDTNESTNTRVLYFSIFSMFCLIGLATWQVFYLRRFFKAKKLIE

Molecular target: T1, full-length PTP1B^WT with an N-terminal myc-tag (UniProt P18031)
T1 sequence: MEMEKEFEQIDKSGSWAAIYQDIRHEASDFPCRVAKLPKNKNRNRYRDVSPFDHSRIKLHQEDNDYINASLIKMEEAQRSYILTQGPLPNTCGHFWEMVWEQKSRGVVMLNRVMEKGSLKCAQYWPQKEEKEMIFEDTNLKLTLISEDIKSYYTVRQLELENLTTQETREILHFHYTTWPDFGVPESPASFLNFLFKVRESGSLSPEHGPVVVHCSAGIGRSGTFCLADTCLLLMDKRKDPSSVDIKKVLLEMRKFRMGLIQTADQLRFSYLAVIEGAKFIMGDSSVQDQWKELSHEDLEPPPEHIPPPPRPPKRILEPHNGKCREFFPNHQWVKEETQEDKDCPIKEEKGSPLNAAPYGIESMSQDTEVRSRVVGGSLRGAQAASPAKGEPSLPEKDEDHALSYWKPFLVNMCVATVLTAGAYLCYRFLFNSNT
Assay: affinity purification with mass spectrometry; myc-tagged PTP1B^WT or PTP1B^PRD immunoprecipitated from HEK 293 cell lysates; enriched proteins identified by mass spectrometry proteomics

Binder | binding
B1 | binds
B2 | binds
